Test results as given in patent publication US7256192B2, “Aromatic diamide derivatives, chemicals for agricultural or horticultural use and usage thereof” (Nihon Nohyaku Co., Ltd., priority 1999, dated 2007).
Some entries share one result that the patent states for a list of compounds.

Experiments:
[1] = system: diamondback moth (Plutella xylostella); test: Insecticidal effect on diamondback moth (Test Example 1); format: in vivo; conditions: 50 ppm; Chinese cabbage seedling with eggs immersed about 30 seconds; six days after the immersion; 25° C.
[2] = system: smaller tea tortrix (Adoxophyes sp.); test: Insecticidal effect on smaller tea tortrix (Test Example 3); format: in vivo; conditions: 50 ppm; tea leaves immersed about 30 seconds; larvae; eight days after the inoculation; 25° C., humidity 70%

CCN(CC)C(=O)OCC(C)NC(=O)c1c(I)cccc1C(=O)Nc1ccc(C(F)(C(F)(F)F)C(F)(F)F)nc1C (racemic) [2-32]
insecticidal activity (mortality rating) [1]: B or higher
insecticidal activity (mortality rating) [2]: B or higher

CCNC(=O)OCC(C)NC(=O)c1c(I)cccc1C(=O)Nc1ccc(C(F)(C(F)(F)F)C(F)(F)F)nc1Cl (racemic) [2-39]
insecticidal activity (mortality rating) [1]: B or higher
insecticidal activity (mortality rating) [2]: B or higher

COc1ccc(CNC(=O)OCC(C)NC(=O)c2c(I)cccc2C(=O)Nc2ccc(OC(C(F)(F)F)C(F)(F)F)nc2C)cc1 (racemic) [2-72]
insecticidal activity (mortality rating) [1]: B or higher
insecticidal activity (mortality rating) [2]: B or higher

CNC(=O)OCC(C)(C)NC(=O)c1c(I)cccc1C(=O)Nc1ccc(C(F)(C(F)(F)F)C(F)(F)F)nc1C [2-35]
insecticidal activity (mortality rating) [1]: B or higher
insecticidal activity (mortality rating) [2]: B or higher

CC(COC(=O)NC(C)(C)C)NC(=O)c1c(I)cccc1C(=O)Nc1ccc(C(F)(C(F)(F)F)C(F)(F)F)cc1Cl (stereo not drawn) [compound 140]
insecticidal activity (mortality rating) [1]: B or higher
insecticidal activity (mortality rating) [2]: B or higher

C=CCNC(=O)OCC(C)(C)NC(=O)c1c(I)cccc1C(=O)Nc1ccc(OC(F)(F)F)cc1C [compound 145]
insecticidal activity (mortality rating) [1]: B or higher
insecticidal activity (mortality rating) [2]: B or higher

Cc1cc(C(F)(C(F)(F)F)C(F)(F)F)ccc1NC(=O)c1cccc(I)c1C(=O)NC(C)(C)COC(=O)NCC(F)(F)F [compound 149]
insecticidal activity (mortality rating) [1]: B or higher
insecticidal activity (mortality rating) [2]: B or higher

CCNC(=O)OCC(C)NC(=O)c1c(I)cccc1C(=O)Nc1ccc(C(F)(F)F)cc1C (stereo not drawn) [compound 265]
insecticidal activity (mortality rating) [2]: B or higher

CCNC(=O)OCC(C)NC(=O)c1c(I)cccc1C(=O)Nc1ccc(C(F)(F)C(F)(F)C(F)(F)F)cc1C (stereo not drawn) [compound 272]
insecticidal activity (mortality rating) [2]: B or higher

CCNC(=O)OCC(C)NC(=O)c1c(I)cccc1C(=O)Nc1ccc(C(OCC)(C(F)(F)F)C(F)(F)F)cc1C (stereo not drawn) [compound 279]
insecticidal activity (mortality rating) [2]: B or higher

CCNC(=O)OCC(C)NC(=O)c1c(I)cccc1C(=O)Nc1ccc(OC(F)F)cc1C (stereo not drawn) [compound 284]
insecticidal activity (mortality rating) [1]: B or higher
insecticidal activity (mortality rating) [2]: B or higher

Cc1cc(C(F)(C(F)(F)F)C(F)(F)F)ccc1NC(=O)c1cccc(I)c1C(=O)NC(C)CNS(=O)(=O)N(C)C (stereo not drawn) [compound No. 45, 3-iodo-N′-(4-heptafluoroisopropyl-2-methylphenyl)-N^2-[1-methyl-2-(N,N-dimethylsulfamoylamino)ethyl]phthalamide]
insecticidal activity (mortality rating) [2]: B or higher

CCNC(=O)OCC(C)NC(=O)c1c(I)cccc1C(=O)Nc1ccc(C(F)(C(F)(F)F)C(F)(F)F)cc1C (stereo not drawn) [compound No. 96, 3-iodo-N^1-(4-heptafluoro-isopropyl-2-methylphenyl)-N^2-[1-methyl-2-(ethylamino-carbonyloxy)ethyl]phthalamide]
insecticidal activity (mortality rating) [2]: B or higher
